# Patent publication EP0450461B1, “LHRH Analogs” (The Administrators of The Tulane Educational Fund, priority 1990, dated 1991)
# Part of at least one peptide drawing is inferred or uncertain, most often the ends. Marks after values point to notes of the source that are not given here.
# System: MCF-7 human breast cancer cell line
# Assay: Cytotoxicity test: inhibition of 3H-thymidine incorporation into DNA
# Type: cell-based
# Description: Ability of peptides of Formula I to inhibit incorporation of [³H]thymidine into DNA of monolayer cultures the human mammary tumor cell line MCF-7 is assayed as described [V. K. Sondak et al., Cancer Research, 44, 1725-1728 (1984); F. Holzel et al., J. Cancer Res. Clin. Oncol. 109, 217-226 (1985); M. Albert et al., J. Cancer Res. Clin. Oncol. 109, 210-216 (1985)].
# 200,000 cells in 200 µl of […] + 2% CFBS were incubated with 1,5 or 10 µg cytotoxic analogs for 3 hours or 23 hours then 1 µCi ³H-thymidine added and incubated an additional 60 min. DNA extracted with 1 N perchloric acid and the radioactivity measured.
compound,measurement,setting,value
"CC(C)C[C@H](NC(=O)[C@@H](CCCCNC(=O)CCCC(=O)OCc1ccc2c(c1)C(=O)c1ccccc1C2=O)NC(=O)[C@H](Cc1ccc(O)cc1)NC(=O)[C@H](CO)NC(=O)[C@H](Cc1c[nH]c2ccccc12)NC(=O)[C@H](Cc1c[nH]cn1)NC(=O)[C@@H]1CCC(=O)N1)C(=O)N[C@@H](CCCNC(=N)N)C(=O)N1CCC[C@H]1C(=O)NCC(N)=O [compound 1, pGlu-His-Trp-Ser-Tyr-D-Lys(HMAQG)-Leu-Arg-Pro-Gly-NH₂]",% Inhibition at 4 hrs,Dose 1 µg/ml,29** %
same,% Inhibition at 24 hrs,Dose 1 µg/ml,14** %
same,% Inhibition at 4 hrs,Dose 10 µg/ml,32** %
same,% Inhibition at 24 hrs,Dose 10 µg/ml,71** %
